Consider two substances from paper PMC12393752.

Sequences of proteins named here, by UniProt entry; tags and fusion partners are left off.
UniProt Q9SMV6: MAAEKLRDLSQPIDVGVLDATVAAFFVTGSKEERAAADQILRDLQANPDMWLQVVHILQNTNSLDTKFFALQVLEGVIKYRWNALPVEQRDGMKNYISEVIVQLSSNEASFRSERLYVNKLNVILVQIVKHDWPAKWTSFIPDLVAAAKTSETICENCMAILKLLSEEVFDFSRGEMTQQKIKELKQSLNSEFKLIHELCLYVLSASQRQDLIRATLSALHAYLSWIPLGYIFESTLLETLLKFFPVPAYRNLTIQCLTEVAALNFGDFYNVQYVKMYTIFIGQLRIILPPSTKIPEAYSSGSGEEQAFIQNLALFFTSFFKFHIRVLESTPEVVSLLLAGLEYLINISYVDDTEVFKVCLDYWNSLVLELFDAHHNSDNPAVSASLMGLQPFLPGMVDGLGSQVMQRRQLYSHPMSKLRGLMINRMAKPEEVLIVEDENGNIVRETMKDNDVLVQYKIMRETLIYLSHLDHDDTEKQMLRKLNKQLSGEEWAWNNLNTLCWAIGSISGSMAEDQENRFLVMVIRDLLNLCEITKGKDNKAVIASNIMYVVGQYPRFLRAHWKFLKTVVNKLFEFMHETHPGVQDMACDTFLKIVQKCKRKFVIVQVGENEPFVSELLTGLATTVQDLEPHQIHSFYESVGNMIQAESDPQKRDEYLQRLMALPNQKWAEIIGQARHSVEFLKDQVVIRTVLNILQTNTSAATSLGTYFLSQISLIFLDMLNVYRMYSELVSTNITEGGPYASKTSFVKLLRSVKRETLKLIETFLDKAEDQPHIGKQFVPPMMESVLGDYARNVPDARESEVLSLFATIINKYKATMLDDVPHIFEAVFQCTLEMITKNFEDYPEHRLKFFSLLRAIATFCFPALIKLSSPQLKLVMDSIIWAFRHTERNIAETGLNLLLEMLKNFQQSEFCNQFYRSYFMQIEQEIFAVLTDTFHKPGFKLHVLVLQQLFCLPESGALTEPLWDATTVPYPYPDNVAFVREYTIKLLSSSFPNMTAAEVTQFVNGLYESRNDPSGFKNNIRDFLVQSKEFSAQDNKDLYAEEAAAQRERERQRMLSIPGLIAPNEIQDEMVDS

The target of assay [1] is T1, TBSV p33-cYFP replication protein (Tomato bushy stunt virus) (UniProt P15962).
T1 sequence: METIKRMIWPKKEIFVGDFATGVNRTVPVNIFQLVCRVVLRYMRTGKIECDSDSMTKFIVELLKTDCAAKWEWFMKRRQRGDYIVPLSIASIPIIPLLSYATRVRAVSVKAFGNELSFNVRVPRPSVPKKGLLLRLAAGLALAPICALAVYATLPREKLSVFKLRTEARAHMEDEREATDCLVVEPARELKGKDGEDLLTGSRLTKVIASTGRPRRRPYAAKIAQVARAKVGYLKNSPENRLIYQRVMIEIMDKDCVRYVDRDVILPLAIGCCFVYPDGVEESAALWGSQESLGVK
Description: split reporter; BiFC (nYFP and cYFP fusions) in agroinfiltrated N. benthamiana leaves (wild type or H2B-CFP transgenic), with p19, inoculated with TBSV or CIRV sap 12 h later (Nuc-L1 with XPO1 also in plants without virus); confocal microscopy at 2-2.5 dpi; p33 and p36 with XPO1 also in leaves treated with 400 nM LMB or 0.5% EtOH.

For assay [2], the target named is T2, TBSV Flag-p33 replication protein (Tomato bushy stunt virus) (UniProt P15962).
T2 sequence: T1 sequence
In words: co-IP; Flag-tagged replication proteins and His6-XPO1 co-expressed in yeast; membrane fraction solubilized with detergent; Flag-tagged proteins immobilized on a Flag-column; eluate analysed by western blot. (In general: A western blot detects proteins with antibodies after separation by electrophoresis.)

No constants are given. Whether binding was seen depends on the method and setting. Binding seen in cells or lysates may run through a third protein. Some binding calls cover weakened binding; strength is not graded here. Where a sequence is shown, tags or fusion partners need not be part of it.

For the substance “nYFP-XPO1 (exportin-1, XPO1/CRM1) (from UniProt Q9SMV6 1-1075)”, in assay [1], the binding result is reported as “binds”.
In the case of His6-XPO1 (from UniProt Q9SMV6 1-1075), in assay [2], the binding result is listed as “binds”.
